Measured values reported in PubChem BioAssay AID248 (DTP/NCI, 2004).
The list shows only some results of the screen, not a fair sample: it gathers tests that were run many times, whatever their T/C, doses with no T/C, and many T/C values between a quarter and a half above the control. Further doses and runs are listed elsewhere. T/C is the treated group as % of the vehicle group. Some doses have a count of surviving animals in place of a T/C: the source holds a T/C of zero for them, seemingly a mark for toxic or unscored doses. Some survivor counts are full or nearly so, which does not show that the dose was tolerated: the source hardly ever lists a survival T/C far under the control, and the zero likely stands for such cases as well. Counts of survivors are from the toxicity check (mostly the fifth day) where no day follows; animals may have died later. Schedule codes are those of the source, read here as Q, the interval in days (D) or hours (H), X, the number of doses. Some structures stand for samples that the source files as different forms (salt, stereo form or complex); doses refer to the form tested. Some doses were run more than once; the results are listed from low to high. Marks such as (2×) stand for listed records that agree. For survival time, the PubChem record calls one and a half times the control and up active, and a quarter to a half above the control has no call in these data; cut-offs in other NCI protocols can differ. Some T/C values carry the count of animals alive at the toxicity check (mostly the fifth day); without a count, all were alive then.

Tested on: L1210 leukemia ip in BDF1 mice, survival T/C
Assay: NCI In Vivo Anticancer Drug Screen. Data for tumor model L1210 Leukemia (intraperitoneal) in B6D2F1 (BDF1) mice
Conditions: T/C endpoint: median survival time, higher T/C = longer survival

## N=c1ccn2c(n1)OC1C(O)C(CO)OC12 (configuration not stated)
dose: 150.0 mg/kg/injection, schedule: Q01DX009 (ip), vehicle: water, evaluated on day 54
  T/C: 216 % of control
dose: 150.0 mg/kg/injection, schedule: Q01DX009 (ip), vehicle: water, evaluated on day 60
  T/C: 200 and 244 % of control
dose: 180.0 mg/kg/injection, schedule: Q01DX009 (ip), vehicle: water, evaluated on day 5
  T/C: 203 and 217 % of control
dose: 180.0 mg/kg/injection, schedule: Q01DX009 (ip), vehicle: water, evaluated on day 7
  T/C: 208 and 218 % of control
dose: 180.0 mg/kg/injection, schedule: Q01DX009 (ip), vehicle: water, evaluated on day 27
  T/C: 238 % of control [7 of 8 alive]
dose: 180.0 mg/kg/injection, schedule: Q01DX009 (ip), vehicle: water, evaluated on day 30
  T/C: 225 % of control [7 of 8 alive]
dose: 180.0 mg/kg/injection, schedule: Q01DX009 (ip), vehicle: water, evaluated on day 31
  T/C: 218 % of control
dose: 180.0 mg/kg/injection, schedule: Q01DX009 (ip), vehicle: water, evaluated on day 33
  T/C: 283 % of control
dose: 180.0 mg/kg/injection, schedule: Q01DX009 (ip), vehicle: water, evaluated on day 60
  T/C: 200, 208, 215 % of control
dose: 200.0 mg/kg/injection, schedule: Q01DX001 (ip), vehicle: water
  survivor count: 5 of 8
dose: 200.0 mg/kg/injection, schedule: Q01DX009 (ip), vehicle: water, evaluated on day 5
  T/C: 303 % of control
dose: 200.0 mg/kg/injection, schedule: Q01DX009 (ip), vehicle: water, evaluated on day 30
  T/C: 250 % of control
dose: 200.0 mg/kg/injection, schedule: Q01DX009 (ip), vehicle: water, evaluated on day 35
  T/C: 235 % of control
dose: 200.0 mg/kg/injection, schedule: Q01DX009 (ip), vehicle: water, evaluated on day 45
  T/C: 215 % of control
dose: 200.0 mg/kg/injection, schedule: Q01DX009 (ip), vehicle: water, evaluated on day 60
  T/C: 231, 236, 272 [7 of 8 alive], 303 % of control
dose: 200.0 mg/kg/injection, schedule: Q03HX024 (ip), vehicle: saline
  T/C: 133 % of control
dose: 200.0 mg/kg/injection, schedule: Q04DX003 (oral), vehicle: saline
  T/C: 144 % of control
dose: 200.0 mg/kg/injection, schedule: Q04DX003 (oral), vehicle: water
  T/C: 138 % of control
dose: 300.0 mg/kg/injection, schedule: Q01DX009 (ip), vehicle: water, evaluated on day 5
  T/C: 232, 265, 294 % of control
dose: 300.0 mg/kg/injection, schedule: Q01DX009 (ip), vehicle: water, evaluated on day 7
  T/C: 201 and 222 % of control
dose: 300.0 mg/kg/injection, schedule: Q01DX009 (ip), vehicle: water, evaluated on day 27
  T/C: 238 % of control
dose: 300.0 mg/kg/injection, schedule: Q01DX009 (ip), vehicle: water, evaluated on day 30
  T/C: 232 and 245 % of control
dose: 300.0 mg/kg/injection, schedule: Q01DX009 (ip), vehicle: water, evaluated on day 31
  T/C: 222 % of control
dose: 300.0 mg/kg/injection, schedule: Q01DX009 (ip), vehicle: water, evaluated on day 33
  T/C: 144 % of control
dose: 300.0 mg/kg/injection, schedule: Q01DX009 (ip), vehicle: water, evaluated on day 54
  T/C: 288 % of control
dose: 300.0 mg/kg/injection, schedule: Q01DX009 (ip), vehicle: water, evaluated on day 60
  T/C: 201, 254, 260, 300 [7 of 8 alive], 305 % of control
dose: 400.0 mg/kg/injection, schedule: Q01DX001 (ip), vehicle: saline
  T/C: 133 % of control
dose: 400.0 mg/kg/injection, schedule: Q01DX001 (ip), vehicle: water
  T/C: 127 % of control [6 of 8 alive]
dose: 400.0 mg/kg/injection, schedule: Q01DX009 (ip), vehicle: water, evaluated on day 5
  T/C: 151 % of control
dose: 400.0 mg/kg/injection, schedule: Q01DX009 (ip), vehicle: water, evaluated on day 30
  T/C: 333 % of control
dose: 400.0 mg/kg/injection, schedule: Q01DX009 (ip), vehicle: water, evaluated on day 35
  T/C: 200 % of control
dose: 400.0 mg/kg/injection, schedule: Q01DX009 (ip), vehicle: water, evaluated on day 45
  T/C: 330 % of control [7 of 8 alive]
dose: 400.0 mg/kg/injection, schedule: Q01DX009 (ip), vehicle: water, evaluated on day 60
  T/C: 94, 151, 268, 372 % of control
dose: 400.0 mg/kg/injection, schedule: Q03HX008 (oral), vehicle: water
  survivor count: 3 of 8
dose: 400.0 mg/kg/injection, schedule: Q03HX016 (ip), vehicle: saline
  T/C: 133 % of control [6 of 8 alive]
dose: 400.0 mg/kg/injection, schedule: Q03HX024 (ip), vehicle: water
  survivor count: 7 of 8
dose: 400.0 mg/kg/injection, schedule: Q03HX024 (oral), vehicle: water
  survivor count: 6 of 8
dose: 400.0 mg/kg/injection, schedule: Q04DX003 (oral), vehicle: saline
  T/C: 144 % of control
dose: 500.0 mg/kg/injection, schedule: Q01DX009 (ip), vehicle: water, evaluated on day 5
  T/C: 105 and 535 % of control
dose: 500.0 mg/kg/injection, schedule: Q01DX009 (ip), vehicle: water, evaluated on day 7
  T/C: 144 and 180 % of control
dose: 500.0 mg/kg/injection, schedule: Q01DX009 (ip), vehicle: water, evaluated on day 27
  T/C: 138 % of control
dose: 500.0 mg/kg/injection, schedule: Q01DX009 (ip), vehicle: water, evaluated on day 30
  T/C: 100 % of control
dose: 500.0 mg/kg/injection, schedule: Q01DX009 (ip), vehicle: water, evaluated on day 31
  T/C: 144 % of control [7 of 8 alive]
dose: 500.0 mg/kg/injection, schedule: Q01DX009 (ip), vehicle: water, evaluated on day 60
  T/C: 105, 180 [7 of 8 alive], 545 % of control
dose: 500.0 mg/kg/injection, schedule: Q01DX009 (ip), vehicle: water
  survivor count: 4 of 8
dose: 600.0 mg/kg/injection, schedule: Q01DX009 (ip), vehicle: water, evaluated on day 5
  T/C: 107 and 110 % of control
dose: 600.0 mg/kg/injection, schedule: Q01DX009 (ip), vehicle: water, evaluated on day 30
  T/C: 107 % of control [7 of 8 alive]
dose: 600.0 mg/kg/injection, schedule: Q01DX009 (ip), vehicle: water, evaluated on day 54
  T/C: 133 % of control
dose: 600.0 mg/kg/injection, schedule: Q01DX009 (ip), vehicle: water, evaluated on day 60
  T/C: 100, 110, 666 % of control
dose: 600.0 mg/kg/injection, schedule: Q01DX009 (ip), vehicle: water
  survivor count: 7 of 8
dose: 800.0 mg/kg/injection, schedule: Q01DX001 (ip), vehicle: saline
  T/C: 138 % of control
dose: 800.0 mg/kg/injection, schedule: Q01DX001 (ip), vehicle: water
  T/C: 133 % of control [6 of 8 alive]
dose: 800.0 mg/kg/injection, schedule: Q01DX001 (oral), vehicle: water, evaluated on day 30
  T/C: 133 % of control [7 of 8 alive]
dose: 800.0 mg/kg/injection, schedule: Q01DX001 (oral), vehicle: water, evaluated on day 61
  T/C: 125 % of control
dose: 800.0 mg/kg/injection, schedule: Q01DX009 (ip), vehicle: saline
  survivor count: 7 of 7
dose: 800.0 mg/kg/injection, schedule: Q01DX009 (ip), vehicle: water, evaluated on day 5
  T/C: 102 % of control
dose: 800.0 mg/kg/injection, schedule: Q01DX009 (ip), vehicle: water, evaluated on day 60
  T/C: 102 % of control
dose: 800.0 mg/kg/injection, schedule: Q01DX009 (ip), vehicle: water
  survivor count: 5 of 8 and 8 of 8 (2×)
dose: 800.0 mg/kg/injection, schedule: Q01DX009 (sc), vehicle: water
  survivor count: 7 of 8
dose: 800.0 mg/kg/injection, schedule: Q04DX003 (ip), vehicle: saline
  survivor count: 5 of 8
dose: 1200.0 mg/kg/injection, schedule: Q01DX001 (oral), vehicle: water
  T/C: 125 % of control [7 of 8 alive]
dose: 1600.0 mg/kg/injection, schedule: Q01DX001 (ip), vehicle: water
  survivor count: 2 of 8
dose: 1600.0 mg/kg/injection, schedule: Q01DX001 (oral), vehicle: water
  T/C: 130 % of control
dose: 1600.0 mg/kg/injection, schedule: Q01DX009 (oral), vehicle: water
  survivor count: 6 of 8
dose: 1600.0 mg/kg/injection, schedule: Q04DX003 (ip), vehicle: saline
  survivor count: 5 of 8
dose: 3200.0 mg/kg/injection, schedule: Q01DX001 (ip), vehicle: water
  survivor count: 4 of 8
dose: 3200.0 mg/kg/injection, schedule: Q04DX003 (oral), vehicle: water
  survivor count: 4 of 8
